About 4,000 (1%) of roughly 390,000 compounds were called active. The shares of active, inactive and inconclusive entries below differ from those in the screen. Calls follow the shape of the dose curve; as a rule, active = well fitted inhibition curve with a large enough effect; inconclusive = small, poorly fitted or top-dose-only effect, or another doubt; inactive = no such curve, though single readings can be large or run the other way. Potencies beside an inconclusive call are fits to weak or partial responses and may not hold up.
biological target: DNA polymerase iota (Homo sapiens) (UniProt Q9UNA4); assay: qHTS for Inhibitors of Polymerase Iota; conditions: Pol iota fluorescent replication assay, 10 min; series mostly up to 115 µM; activity, negative = inhibition: at the top concentration
Method in brief: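 Fluorescent replication assay read twice, at 0 min and 10 min after adding 50 nM (final) substrate. Enzyme (10 nM) and compounds were first incubated 15 min at room temperature; enzyme-free buffer wells were negative controls.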
Potency is read from the fitted curve at half-maximal effect.

Amino acid sequences for entries named in this document (tags omitted). A change or cut given only in a name is not applied to a line headed by its entry.
UniProt Q9UNA4: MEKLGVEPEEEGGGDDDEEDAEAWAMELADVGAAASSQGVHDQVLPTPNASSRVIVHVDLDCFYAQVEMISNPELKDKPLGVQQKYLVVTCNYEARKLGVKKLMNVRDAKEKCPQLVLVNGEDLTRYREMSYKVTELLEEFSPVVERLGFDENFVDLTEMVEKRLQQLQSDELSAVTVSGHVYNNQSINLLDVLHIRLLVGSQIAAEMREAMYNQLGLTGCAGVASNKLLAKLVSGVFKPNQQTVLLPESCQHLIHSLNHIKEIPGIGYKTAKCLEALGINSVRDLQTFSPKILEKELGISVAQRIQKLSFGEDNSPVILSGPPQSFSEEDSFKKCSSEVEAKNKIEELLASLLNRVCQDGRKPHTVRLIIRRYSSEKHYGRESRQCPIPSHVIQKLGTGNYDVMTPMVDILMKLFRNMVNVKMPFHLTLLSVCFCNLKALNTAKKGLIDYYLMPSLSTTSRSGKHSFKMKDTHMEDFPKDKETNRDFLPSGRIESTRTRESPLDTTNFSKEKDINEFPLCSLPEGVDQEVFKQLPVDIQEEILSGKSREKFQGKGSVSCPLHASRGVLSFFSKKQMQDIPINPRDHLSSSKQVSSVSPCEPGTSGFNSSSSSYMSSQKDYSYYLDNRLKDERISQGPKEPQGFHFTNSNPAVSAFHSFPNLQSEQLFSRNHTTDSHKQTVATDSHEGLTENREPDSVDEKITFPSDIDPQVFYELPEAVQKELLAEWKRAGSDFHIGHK

| SMILES | activity, negative = inhibition | Potency |
| --- | --- | --- |
| O=c1cc(CSc2n[nH]c(-c3ccccc3)n2)[nH]c2ccccc12 | inactive: 36.5% | – |
| Cc1ccc(-c2c(C(=O)N/N=C/c3ccc(OC(C)C)cc3)nnn2-c2nonc2N)cc1 | – | inconclusive: 39.8 µM [inhibitor, single point] |
| COc1ccc(OC)c2c1C(=O)C(Cl)=C(Cl)C2=O | inactive: 69% | – |
| O=C(NC1CCCCC1)c1ccc2c(c1)N(Cc1ccc(Cl)cc1)C(=O)c1ccccc1S2(=O)=O | inactive: 24.4% | – |
| CCC(=O)N(C1=C(NC)C(=O)c2ccccc2C1=O)C(C)C | – | inconclusive: 35.5 µM [inhibitor, full curve, poor fit] |
| CC(C)C[C@@H](CNCC(=O)[C@H](CC(C)C)NC(=O)c1[nH]cnc1C(=O)N[C@H](CN)CC(C)C)NC(=O)c1nc[nH]c1C(=O)N[C@@H](CC(=O)O)C(=O)O | – | inconclusive: 25.1 µM [inhibitor, full curve, poor fit] |
| O=C(NCCc1ccccc1)c1ccc(CSc2nc3ccncc3n2Cc2ccc(F)cc2)cc1 | inactive: 16.2% | – |
| Nc1nc(N)c(N=O)c(N)n1 | – | inconclusive: 89.1 µM [inhibitor, partial curve] |
| COc1cccc(CNCCSc2nnnn2C)c1OCc1ccccc1F | – | inconclusive: 100 µM [inhibitor, single point] |
| O=C(Nc1ccc(Cl)cc1F)c1cc(S(=O)(=O)NCc2ccc3c(c2)OCO3)ccc1F | – | inconclusive: 89.1 µM [inhibitor, single point] |
| COc1ccc(C2CC(c3ccccc3F)=NN2c2ccc(S(N)(=O)=O)cc2)cc1 (stereo unspecified) | – | inconclusive: 28.2 µM [inhibitor, single point] |
| CC(=O)c1c(C)[nH]c(C(=O)Nc2ccccc2Cl)c1C | – | inconclusive: 100 µM [inhibitor, partial curve, poor fit] |
| CN(C)S(=O)(=O)c1cccc(NC(=O)COC(=O)/C=C/c2ccc(Br)o2)c1 | – | active: 44.7 µM |
| C#CCn1c(=NC(=O)c2cccs2)sc2cccc(OC)c21 | – | inconclusive: 50.1 µM [inhibitor, single point] |
| CC(C)(C)c1nc(CN2CCOCC2)cc(CN2CCOCC2)c1O | – | inconclusive: 15.8 µM [inhibitor, partial curve] |
| CS(=O)(=O)c1ncc(Cl)c(C(=O)Nc2ccc(OC(F)F)cc2)n1 | – | inconclusive: 31.6 µM [inhibitor, partial curve, poor fit] |
| COc1ccccc1/C=C\C(=O)NCC(=O)N/N=C(\C)Cc1ccccc1 | inactive: 18.8% | – |
| COc1ccc(NC(=O)c2ccc3c(SCC(=O)O)c4c(nc3c2)CCC4)c(OC)c1 | – | inconclusive: 56.2 µM [inhibitor, partial curve, poor fit] |
| CCc1ccc(N=C2NC(=O)/C(=C/c3cc(OC)c(O)c(OC)c3)S2)cc1 | inactive: 0.529% | – |
| CC(=O)Oc1ccc2ccc(=O)oc2c1 | – | inconclusive: 79.4 µM [inhibitor, partial curve] |
| O=c1oc2ccccc2c(Nc2ccc3ccccc3c2)c1[N+](=O)[O-] | – | inconclusive: 31.6 µM [inhibitor, full curve] |

| SMILES | activity, negative = inhibition | Potency |
| --- | --- | --- |
| COc1cc(C(=O)NCCNC(=O)c2ccco2)cc(OC)c1OC | – | inconclusive: 31.6 µM [inhibitor, single point] |
| Cc1cc(C)nc(NC(=O)/C=C/c2ccccc2Cl)c1 | – | inconclusive: 79.4 µM [inhibitor, single point] |
| CNC(=O)c1ccc(N(Cc2ccccc2C)S(C)(=O)=O)cc1 | – | inconclusive: 89.1 µM [inhibitor, partial curve, poor fit] |
| CC(=O)N1c2ccc(S(=O)(=O)NCC3CCC(C(=O)Nc4cccc(C)c4C)CC3)cc2CC1C (stereo unspecified) | – | inconclusive: 89.1 µM [inhibitor, single point] |
| COc1ccc(C(=O)O)cc1S(=O)(=O)N1CCCc2ccccc21 | – | inconclusive: 11.2 µM [inhibitor, single point] |
| CC(=O)Nc1ccc(S(=O)(=O)Nc2cc(-c3cn4ccccc4n3)ccc2C)cc1 | inactive: 31.8% | – |
| COc1ccc(N2C(=O)C(Cl)=C(Oc3cccc(OC)c3)C2=O)cc1 | – | inconclusive: 39.8 µM [inhibitor, single point] |
| N#Cc1ccc[n+](CC(=O)c2ccc(O)c(O)c2)c1 | – | active: 0.891 µM |
| COc1ccc(Nc2nc3c(S(=O)(=O)c4ccccc4)nnn3c3ccsc23)cc1OC | – | inconclusive: 70.8 µM [inhibitor, partial curve, poor fit] |
| COc1ccc(NC(=O)c2c(C)oc3ccc(O)c(CN4CCCCCC4)c23)cc1Cl | inactive: -14.6% | – |
| CC1Cc2ccccc2N1S(=O)(=O)c1cccc(C(=O)N2CC(=O)Nc3ccccc32)c1 (stereo unspecified) | inactive: 10.7% | – |
| CCOC(=O)c1cc2c(=O)n3ccccc3nc2n(Cc2ccco2)c1=NC(=O)c1c(F)cccc1Cl | – | inconclusive: 56.2 µM [inhibitor, partial curve, poor fit] |
| Cn1c(/C=C/c2cccc([N+](=O)[O-])c2)c([N+](=O)[O-])c(=O)n(C)c1=O | – | inconclusive: 31.6 µM [inhibitor, single point] |
| COc1ccc(C(O)(C(C)C)C(CN2CCOCC2)c2ccc(Cl)cc2)cc1 (stereo unspecified) | – | inconclusive: 44.7 µM [inhibitor, single point] |
| Cc1cc2c(NCCc3ccccc3)ncnc2s1 | – | inconclusive: 22.4 µM [inhibitor, single point] |
| O=C(NNC(=O)c1ccc(Cl)cc1Cl)c1csc(-c2cccnc2)n1 | – | inconclusive: 31.6 µM [inhibitor, single point] |
| Cc1cc(C(=O)N/N=C/c2ccc([N+](=O)[O-])o2)c(C)o1 | – | inconclusive: 50.1 µM [inhibitor, partial curve, poor fit] |
| O=C(Nc1ccc(O)cc1)c1ccc2c(c1)C(=O)N(N1C(=O)c3ccccc3C1=O)C2=O | inactive: -20.2% | – |
| C=C1C(=O)O[C@H]2[C@H]1[C@H](OC(=O)/C(C)=C\C)C[C@]1(CO1)[C@@H]1[C@H](OC(C)=O)C=C(C)[C@]21O | – | inconclusive: 15.8 µM [inhibitor, full curve, poor fit] |
| CCNC(=O)COc1ccc(/C=C2\COc3ccccc3C2=O)cc1OC | – | inconclusive: 22.4 µM [inhibitor, partial curve, poor fit] |

3 entries drawn at random from the list so far, as already listed:

| SMILES | activity, negative = inhibition | Potency |
| --- | --- | --- |
| CNC(=O)c1ccc(N(Cc2ccccc2C)S(C)(=O)=O)cc1 | – | inconclusive: 89.1 µM [inhibitor, partial curve, poor fit] |
| CCC(=O)N(C1=C(NC)C(=O)c2ccccc2C1=O)C(C)C | – | inconclusive: 35.5 µM [inhibitor, full curve, poor fit] |
| Cc1cc2c(NCCc3ccccc3)ncnc2s1 | – | inconclusive: 22.4 µM [inhibitor, single point] |

From PubChem BioAssay AID588590 (National Center for Advancing Translational Sciences (NCATS), 2011)
